Data taken from PubChem BioAssay AID504444 (National Center for Advancing Translational Sciences (NCATS), 2011).
About 7,500 (2.1%) of roughly 360,000 compounds were called active. This list was built around the results that the source calls inconclusive (neither active nor inactive); the mix of calls is not that of the screen. The call rests on the fitted dose curve; in most records, active means well fitted inhibition curve with a large enough effect; inconclusive means small, poorly fitted or top-dose-only effect, or effect the other way; inactive means flat fitted curve, though single readings scatter. Potencies beside an inconclusive call are fits to weak or partial responses and may not hold up.

Assay: Nrf2 qHTS screen for inhibitors; further: nearly all actives have a fitted effect of over 60% in size
Settings: A549 ARE-Fluc reporter, luciferase luminescence, 18-24 h; activity change, negative = inhibition: at 46 µM (top of the series)
Outline: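 Two sequential reads on A549 ARE_Fluc cells exposed to compound for 18-24 h: a CellTiter-Fluor fluorescence read for viability, then a luciferase luminescence read for Nrf2/ARE activity.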
On the % scale 0 is the no-effect control and ±100 the full control effect; potency means the concentration at half of the fitted maximal effect.

SMILES | Potency | activity change, negative = inhibition
CCOC(=O)C1CCN(CC(=O)N(CC(C)C)c2c(N)n(CC(C)C)c(=O)[nH]c2=O)CC1 | inconclusive: 29.1 µM [activator, single point] | –
CC1CCC(NC(=O)COC(=O)c2ccc3ncsc3c2)CC1 (configuration not stated) | – | inactive: 10.9%
C/C(=N/NC(=O)CN(c1ccccc1)S(=O)(=O)c1ccccc1)c1ccccc1O | inconclusive: 23.1 µM [falling, single point] | –
CCC(=O)Nc1ccccc1-c1nc2ccccc2n(C(C)C(=O)Nc2cccc(Cl)c2C)c1=O (configuration not stated) | inconclusive: 8.2 µM [activator, partial curve] | –
CCOC(=O)N1CCC2(CC1)C(C#N)=C(N)Oc1c2sc2nc(C)cc(C)c12 | inconclusive: 18.4 µM [falling, single point] | –
Cc1c(C=O)c2ccccc2n1CCOc1ccccc1 | inconclusive: 8.2 µM [activator, partial curve] | –
COc1ccc(OC)c2sc(N3CCN(C(=O)c4ccc([N+](=O)[O-])s4)CC3)nc12 | inconclusive: 29.1 µM [falling, single point] | –
CCCCNC(=O)OCCNC(=O)NC | inconclusive: 9.2 µM [activator, partial curve] | –
Cc1cccc(N/C=C/C(=O)c2ccc(Cl)cc2)c1 | inconclusive: 2.91 µM [activator, partial curve] | –
Cc1cc(NC(=O)c2ccc(-c3ccccc3F)o2)no1 | inconclusive: 14.6 µM [activator, single point] | –
CC(=O)c1ccc(N2CCN(c3nc4c(S(=O)(=O)c5ccc(C)c(C)c5)nnn4c4ccc(Cl)cc34)CC2)cc1 | inconclusive: 0.82 µM [falling, full curve, poor fit] | –
COc1ccc(Cl)cc1N1C(=O)/C(=C/c2sccc2C)N=C1SCC(=O)NC1CC1 | inconclusive: 13 µM [falling, partial curve, poor fit] | –
Cc1nn(-c2ccccc2)c(N)c1Sc1ccccc1[N+](=O)[O-] | inconclusive: 29.1 µM [falling, single point] | –
Cn1cccc1C(=O)OCc1cc(Cl)cc2c1OCOC2 | inconclusive: 11.6 µM [activator, partial curve] | –
O=C(c1cccs1)N1CCN(C(=O)c2cccs2)C1=S | inconclusive: 18.4 µM [falling, single point] | –
NC(=O)c1ccsc1NC(=O)CCS(=O)(=O)c1ccc(F)cc1 | inconclusive: 16.4 µM [falling, single point] | –
O=C(CCCn1c(=O)c2ccccc2n(CC(=O)Nc2cccc(Cl)c2)c1=O)NCc1ccc2c(c1)OCO2 | – | inactive: -0.755%
CCOc1ccc2oc(=O)cc(CN3CCN(Cc4ccc(F)cc4)CC3)c2c1 | – | inactive: -0.0981%
COc1ccc(CCNC(=O)c2ccccc2-c2ccccc2C(=O)O)cc1OC | – | inactive: -2.44%
CN(CC(=O)NC1CCCC1)S(=O)(=O)c1cccc(Cl)c1 | – | inactive: -7.21%
CCn1c(SCC(=O)Nc2sc3c(c2C#N)CCCC3)nnc1-c1ccncc1 | inconclusive: 16.4 µM [falling, partial curve] | –

Some of the entries above, set out differently:

| SMILES | Potency | activity change, negative = inhibition |
| --- | --- | --- |
| Cc1cccc(N/C=C/C(=O)c2ccc(Cl)cc2)c1 | inconclusive: 2.91 µM [activator, partial curve] | – |
| Cc1nn(-c2ccccc2)c(N)c1Sc1ccccc1[N+](=O)[O-] | inconclusive: 29.1 µM [falling, single point] | – |
| COc1ccc(CCNC(=O)c2ccccc2-c2ccccc2C(=O)O)cc1OC | – | inactive: -2.44% |

Continued.

SMILES | Potency | activity change, negative = inhibition
COc1ccc(N/N=C/c2c(C(=O)O)ccc3ccccc23)cc1 | inconclusive: 29.1 µM [falling, single point] | –
CC(C)c1ccc(NC(=O)COc2ccccc2)cc1 | inconclusive: 16.4 µM [activator, partial curve] | –
CCCN1CCC(=O)N([C@H](CSc2ccccc2)c2ccccc2)CC1 | inconclusive: 7.31 µM [activator, partial curve] | –
Cc1nnc2n(-c3ccccc3)c(=O)c3c4c(sc3n12)CC(C)CC4 (configuration not stated) | inconclusive: 29.1 µM [falling, single point] | –
Cc1ccc2c(c1)C(=O)C(=O)N2c1ccc(Cl)cc1 | inconclusive: 23.1 µM [activator, partial curve, poor fit] | –
CCOc1ccc(S(=O)(=O)c2cn(C)c3ccccc3c2=O)cc1 | – | inactive: -13.4%
CC(NC(=O)c1c2c(nc3ccccc13)C(=O)N(C1CCCCC1)C2)c1ccccc1 (configuration not stated) | inconclusive: 29.1 µM [activator, single point] | –
NC(=S)N/N=C/c1ccccc1[N+](=O)[O-] | inconclusive: 13 µM [falling, partial curve, poor fit] | –
Cc1nnc(NC(=O)CN2CCN(Cc3ccc(F)cc3Cl)CC2)s1 | – | inactive: -3.04%
CCN(C(=O)CN1C(=O)S/C(=C\c2ccc(Cl)cc2)C1=O)C1CCS(=O)(=O)C1 (configuration not stated) | – | inactive: -6.15%
Cc1csc(NC(=O)c2cccnc2Cl)n1 | inconclusive: 20.6 µM [activator, single point] | –
OCC1(Cc2ccccc2)CCN(Cc2cnc(-c3ccc(Cl)cc3)nc2)CC1 | inconclusive: 11.6 µM [falling, partial curve, poor fit] | –
COc1ccccc1S(=O)(=O)Cc1ccc(C(=O)N2CCN(c3cccc(Cl)c3)CC2)o1 | inconclusive: 29.1 µM [falling, single point] | –
Cc1cc(C)n(-c2ccc(C(=O)N3CCN(S(=O)(=O)c4ccc(C(C)C)cc4)CC3)cc2)n1 | active: 23.1 µM | –
COc1cc(C(=O)Oc2cc(N)n(S(=O)(=O)c3ccccc3)n2)cc(OC)c1OC | inconclusive: 13 µM [falling, partial curve, poor fit] | –
COc1ccc(CCNc2nc(-c3ccc(F)cc3)cc(C(F)(F)F)n2)cc1OC | – | inactive: 8.32% [at 9.27 µM]
Cc1noc(C)c1COc1ccc(C(=O)Nc2nnc(CC(C)C)s2)cc1 | inconclusive: 20.6 µM [falling, single point] | –
c1ccc(CNc2ncnc3c2cnn3-c2ccccc2)cc1 | – | inactive: -8.91%
O=C(Cn1c(-c2cccs2)cc2cc(F)ccc21)NCCCN1CCN(c2ccccc2F)CC1 | – | inactive: -15.6%
CC(=O)c1ccc(S(=O)(=O)N2CCN(C(=O)c3ccc(-n4nc(C)c(Cl)c4C)cc3)CC2)cc1 | active: 25.9 µM | –
CC(NC(=O)c1cccc(S(=O)(=O)N2CCN(Cc3ccccc3)CC2)c1)c1ccc(Br)cc1 (configuration not stated) | inconclusive: 23.1 µM [falling, partial curve, poor fit] | –
